# This is one part of the list.
# By UniProt entry, the sequences of proteins in these tests, tags left out. Where a name states a change or a piece, a line headed by the entry shows the natural chain unless it says otherwise.
# UniProt Q9ULT8: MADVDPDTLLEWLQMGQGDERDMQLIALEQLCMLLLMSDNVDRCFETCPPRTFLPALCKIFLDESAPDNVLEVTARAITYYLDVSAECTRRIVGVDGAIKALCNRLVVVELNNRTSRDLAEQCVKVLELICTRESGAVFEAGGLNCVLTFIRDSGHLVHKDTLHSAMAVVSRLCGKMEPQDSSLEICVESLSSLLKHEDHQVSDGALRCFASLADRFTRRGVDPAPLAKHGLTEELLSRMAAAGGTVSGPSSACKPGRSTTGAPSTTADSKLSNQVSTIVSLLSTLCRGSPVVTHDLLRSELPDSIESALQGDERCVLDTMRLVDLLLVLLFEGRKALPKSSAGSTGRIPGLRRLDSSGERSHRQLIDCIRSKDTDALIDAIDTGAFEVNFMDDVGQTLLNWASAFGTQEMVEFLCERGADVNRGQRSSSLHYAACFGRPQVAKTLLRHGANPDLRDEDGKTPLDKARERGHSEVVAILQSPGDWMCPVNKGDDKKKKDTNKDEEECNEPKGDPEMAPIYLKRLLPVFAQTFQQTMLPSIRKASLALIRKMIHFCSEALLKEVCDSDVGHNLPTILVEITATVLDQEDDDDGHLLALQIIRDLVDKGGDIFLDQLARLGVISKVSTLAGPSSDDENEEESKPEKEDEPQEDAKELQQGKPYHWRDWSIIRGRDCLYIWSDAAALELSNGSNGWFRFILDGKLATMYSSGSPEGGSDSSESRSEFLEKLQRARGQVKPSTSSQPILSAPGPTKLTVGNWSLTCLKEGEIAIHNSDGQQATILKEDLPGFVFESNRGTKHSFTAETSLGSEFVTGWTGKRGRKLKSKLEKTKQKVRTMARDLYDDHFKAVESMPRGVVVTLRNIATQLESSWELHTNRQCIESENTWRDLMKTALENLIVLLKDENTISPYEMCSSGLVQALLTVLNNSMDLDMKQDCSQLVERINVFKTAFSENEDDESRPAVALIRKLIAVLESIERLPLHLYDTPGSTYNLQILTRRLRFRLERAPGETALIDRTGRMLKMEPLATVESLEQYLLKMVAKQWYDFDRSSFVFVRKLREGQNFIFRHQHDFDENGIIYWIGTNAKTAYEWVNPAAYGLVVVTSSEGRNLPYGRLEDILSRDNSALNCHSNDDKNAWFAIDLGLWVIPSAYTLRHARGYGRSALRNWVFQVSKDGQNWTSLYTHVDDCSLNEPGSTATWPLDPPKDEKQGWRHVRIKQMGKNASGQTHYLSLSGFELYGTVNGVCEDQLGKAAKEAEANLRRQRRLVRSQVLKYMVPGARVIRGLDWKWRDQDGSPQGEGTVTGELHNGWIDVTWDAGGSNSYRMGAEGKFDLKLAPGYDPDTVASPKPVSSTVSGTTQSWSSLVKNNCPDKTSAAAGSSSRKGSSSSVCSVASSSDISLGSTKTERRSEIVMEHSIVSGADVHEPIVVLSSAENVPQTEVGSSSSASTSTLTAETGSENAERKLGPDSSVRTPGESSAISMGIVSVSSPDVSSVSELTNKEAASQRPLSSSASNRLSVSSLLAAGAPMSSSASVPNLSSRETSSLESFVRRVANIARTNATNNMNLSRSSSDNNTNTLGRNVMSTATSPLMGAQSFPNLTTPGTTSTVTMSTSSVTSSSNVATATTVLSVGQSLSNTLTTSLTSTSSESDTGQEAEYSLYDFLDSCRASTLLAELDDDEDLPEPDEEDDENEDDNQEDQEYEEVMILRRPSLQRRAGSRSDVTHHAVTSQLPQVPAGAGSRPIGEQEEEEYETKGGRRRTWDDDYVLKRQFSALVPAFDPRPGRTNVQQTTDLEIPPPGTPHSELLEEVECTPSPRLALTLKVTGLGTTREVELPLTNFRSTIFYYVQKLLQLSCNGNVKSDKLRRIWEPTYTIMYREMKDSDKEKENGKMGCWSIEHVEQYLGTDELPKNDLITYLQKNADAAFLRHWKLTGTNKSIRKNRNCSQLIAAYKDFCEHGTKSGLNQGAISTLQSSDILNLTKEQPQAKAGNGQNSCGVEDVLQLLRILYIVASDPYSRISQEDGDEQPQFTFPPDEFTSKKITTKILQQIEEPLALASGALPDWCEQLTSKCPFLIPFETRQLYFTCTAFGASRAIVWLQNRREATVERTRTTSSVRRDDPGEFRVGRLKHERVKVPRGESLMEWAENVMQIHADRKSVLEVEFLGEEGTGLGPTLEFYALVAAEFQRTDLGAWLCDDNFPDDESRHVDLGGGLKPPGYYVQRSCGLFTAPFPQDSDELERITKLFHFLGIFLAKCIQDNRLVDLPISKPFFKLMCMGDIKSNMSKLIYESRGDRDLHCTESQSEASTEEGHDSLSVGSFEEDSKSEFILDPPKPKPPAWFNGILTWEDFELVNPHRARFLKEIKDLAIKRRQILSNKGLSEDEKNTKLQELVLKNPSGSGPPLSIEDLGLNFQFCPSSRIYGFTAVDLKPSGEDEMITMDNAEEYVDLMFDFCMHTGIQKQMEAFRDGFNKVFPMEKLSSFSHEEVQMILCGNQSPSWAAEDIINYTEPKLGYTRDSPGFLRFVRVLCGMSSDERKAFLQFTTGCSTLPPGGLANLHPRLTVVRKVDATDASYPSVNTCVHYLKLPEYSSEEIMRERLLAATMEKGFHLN
# UniProt Q8N4P3, whole entry, looked up: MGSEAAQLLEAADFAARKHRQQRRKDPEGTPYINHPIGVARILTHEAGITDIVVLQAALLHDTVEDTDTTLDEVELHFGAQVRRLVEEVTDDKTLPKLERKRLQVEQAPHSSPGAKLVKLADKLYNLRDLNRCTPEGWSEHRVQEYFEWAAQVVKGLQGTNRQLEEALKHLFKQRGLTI
# UniProt Q13888: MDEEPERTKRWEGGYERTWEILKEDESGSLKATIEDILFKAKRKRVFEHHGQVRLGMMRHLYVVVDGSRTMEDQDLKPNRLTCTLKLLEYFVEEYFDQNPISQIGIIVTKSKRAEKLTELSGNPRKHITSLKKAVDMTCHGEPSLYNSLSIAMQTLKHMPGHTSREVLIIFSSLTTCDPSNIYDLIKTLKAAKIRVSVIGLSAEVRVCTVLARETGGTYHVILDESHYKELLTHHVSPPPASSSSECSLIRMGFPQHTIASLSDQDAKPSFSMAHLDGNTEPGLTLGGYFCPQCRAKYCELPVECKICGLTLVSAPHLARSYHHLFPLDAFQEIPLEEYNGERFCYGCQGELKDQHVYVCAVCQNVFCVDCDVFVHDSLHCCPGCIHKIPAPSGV
# UniProt P40939: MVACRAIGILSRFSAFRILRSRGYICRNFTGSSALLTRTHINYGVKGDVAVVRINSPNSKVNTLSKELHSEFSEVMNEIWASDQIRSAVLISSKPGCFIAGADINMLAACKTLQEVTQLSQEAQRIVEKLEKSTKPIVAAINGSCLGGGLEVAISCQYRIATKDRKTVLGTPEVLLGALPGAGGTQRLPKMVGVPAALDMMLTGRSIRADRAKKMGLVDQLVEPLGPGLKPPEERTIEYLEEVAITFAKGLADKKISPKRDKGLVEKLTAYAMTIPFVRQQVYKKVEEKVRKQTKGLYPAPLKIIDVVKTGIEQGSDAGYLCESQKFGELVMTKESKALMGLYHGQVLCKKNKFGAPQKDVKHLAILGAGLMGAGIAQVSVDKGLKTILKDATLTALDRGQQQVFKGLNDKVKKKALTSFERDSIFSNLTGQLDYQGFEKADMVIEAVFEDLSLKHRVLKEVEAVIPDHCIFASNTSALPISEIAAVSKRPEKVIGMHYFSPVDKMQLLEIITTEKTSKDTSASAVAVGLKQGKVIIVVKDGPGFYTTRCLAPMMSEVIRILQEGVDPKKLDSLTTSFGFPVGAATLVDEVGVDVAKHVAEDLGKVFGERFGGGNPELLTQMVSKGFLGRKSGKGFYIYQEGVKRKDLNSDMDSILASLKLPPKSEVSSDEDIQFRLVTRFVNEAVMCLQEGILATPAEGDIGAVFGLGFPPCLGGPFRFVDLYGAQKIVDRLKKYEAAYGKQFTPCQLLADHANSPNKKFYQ
# UniProt Q12789: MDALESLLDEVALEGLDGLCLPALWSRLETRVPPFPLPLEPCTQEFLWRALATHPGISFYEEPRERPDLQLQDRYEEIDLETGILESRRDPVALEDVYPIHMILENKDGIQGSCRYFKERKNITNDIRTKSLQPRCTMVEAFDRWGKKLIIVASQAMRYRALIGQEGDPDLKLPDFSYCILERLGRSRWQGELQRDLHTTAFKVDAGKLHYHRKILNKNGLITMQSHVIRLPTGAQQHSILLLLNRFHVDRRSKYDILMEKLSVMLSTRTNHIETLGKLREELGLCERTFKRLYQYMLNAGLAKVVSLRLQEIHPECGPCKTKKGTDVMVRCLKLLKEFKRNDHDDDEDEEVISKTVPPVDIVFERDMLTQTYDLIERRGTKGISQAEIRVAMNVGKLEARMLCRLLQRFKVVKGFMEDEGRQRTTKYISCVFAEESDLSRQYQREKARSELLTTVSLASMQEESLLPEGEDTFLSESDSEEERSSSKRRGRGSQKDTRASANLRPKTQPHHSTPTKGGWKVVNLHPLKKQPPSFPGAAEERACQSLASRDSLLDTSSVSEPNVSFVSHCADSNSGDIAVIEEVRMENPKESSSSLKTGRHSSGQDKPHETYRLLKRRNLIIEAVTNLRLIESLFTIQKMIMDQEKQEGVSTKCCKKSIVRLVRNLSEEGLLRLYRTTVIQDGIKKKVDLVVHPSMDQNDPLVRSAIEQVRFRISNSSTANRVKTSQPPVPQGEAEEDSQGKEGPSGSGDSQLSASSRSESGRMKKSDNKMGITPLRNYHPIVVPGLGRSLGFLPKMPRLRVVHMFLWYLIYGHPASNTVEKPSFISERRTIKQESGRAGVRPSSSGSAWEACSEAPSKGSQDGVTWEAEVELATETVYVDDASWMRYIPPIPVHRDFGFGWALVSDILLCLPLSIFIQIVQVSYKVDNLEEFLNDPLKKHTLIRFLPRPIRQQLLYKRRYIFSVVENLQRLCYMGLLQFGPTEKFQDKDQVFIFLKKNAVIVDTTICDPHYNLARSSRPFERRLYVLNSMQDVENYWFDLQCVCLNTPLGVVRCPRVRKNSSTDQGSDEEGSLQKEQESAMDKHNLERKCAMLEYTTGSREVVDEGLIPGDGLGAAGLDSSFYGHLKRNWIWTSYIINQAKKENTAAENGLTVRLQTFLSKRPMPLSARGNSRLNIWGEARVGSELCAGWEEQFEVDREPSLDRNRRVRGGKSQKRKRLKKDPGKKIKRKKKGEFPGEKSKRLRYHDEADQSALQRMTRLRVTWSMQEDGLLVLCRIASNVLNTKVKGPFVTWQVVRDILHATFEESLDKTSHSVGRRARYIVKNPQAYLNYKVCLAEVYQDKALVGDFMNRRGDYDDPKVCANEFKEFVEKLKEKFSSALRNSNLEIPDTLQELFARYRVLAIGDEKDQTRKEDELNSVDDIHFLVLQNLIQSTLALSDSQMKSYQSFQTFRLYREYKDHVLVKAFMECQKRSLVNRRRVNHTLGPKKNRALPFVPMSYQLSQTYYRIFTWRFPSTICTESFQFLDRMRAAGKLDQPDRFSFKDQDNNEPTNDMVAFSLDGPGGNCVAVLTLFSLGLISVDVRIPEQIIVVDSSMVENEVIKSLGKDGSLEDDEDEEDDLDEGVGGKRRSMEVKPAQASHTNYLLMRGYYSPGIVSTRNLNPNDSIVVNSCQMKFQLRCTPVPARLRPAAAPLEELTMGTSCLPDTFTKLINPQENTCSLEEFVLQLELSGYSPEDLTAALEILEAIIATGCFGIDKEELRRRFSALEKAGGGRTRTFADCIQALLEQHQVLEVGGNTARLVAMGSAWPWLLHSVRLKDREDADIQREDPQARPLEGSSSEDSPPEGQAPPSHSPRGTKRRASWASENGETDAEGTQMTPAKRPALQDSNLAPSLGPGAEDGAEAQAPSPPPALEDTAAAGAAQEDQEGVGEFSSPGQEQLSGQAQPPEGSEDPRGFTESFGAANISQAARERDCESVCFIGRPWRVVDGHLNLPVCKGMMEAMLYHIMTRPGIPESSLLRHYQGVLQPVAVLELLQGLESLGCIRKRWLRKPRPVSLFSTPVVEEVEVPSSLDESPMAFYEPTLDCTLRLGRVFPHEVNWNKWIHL
# UniProt Q13889: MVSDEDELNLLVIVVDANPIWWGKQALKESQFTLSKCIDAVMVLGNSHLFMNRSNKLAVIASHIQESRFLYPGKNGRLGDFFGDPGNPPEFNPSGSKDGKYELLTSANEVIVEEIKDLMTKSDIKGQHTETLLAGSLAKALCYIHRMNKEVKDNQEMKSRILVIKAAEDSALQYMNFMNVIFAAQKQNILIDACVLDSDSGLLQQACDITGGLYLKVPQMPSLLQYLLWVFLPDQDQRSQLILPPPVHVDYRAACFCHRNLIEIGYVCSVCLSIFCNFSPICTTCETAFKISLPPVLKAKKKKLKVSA
# UniProt P69891: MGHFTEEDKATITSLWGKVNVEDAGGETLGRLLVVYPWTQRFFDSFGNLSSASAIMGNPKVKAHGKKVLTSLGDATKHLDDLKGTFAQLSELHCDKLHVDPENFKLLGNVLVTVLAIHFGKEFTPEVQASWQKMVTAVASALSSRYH
# Tests used:
# Experiment in all cases: log2 fold change, soluble protein after heating vs DMSO (PISA); higher = thermal stabilisation; K562 cells, 10 uM, 30 min; active = over 0.2 and 3.5 SD of the protein, either way, in both replicates (recomputed)
# erlotinib = compound: C#Cc1cccc(Nc2ncnc3cc(OCCOC)c(OCCOC)cc23)c1 [erlotinib]
# Procedure, shortened: (§1)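 Quantification of soluble protein used TMTpro 16plex LC-MS/MS, with channel sums equalised. Samples were the supernatant after 21,000xg for 90 min of pooled aliquots from K562 cells (2×10^6 cells/mL) treated with 10 μM compound for 30 min, heated for 3 min over 48°C-58°C, and extracted in PBS with 0.5% NP-40 at 4°C. Values, from duplicates, describe thermal stability against control samples on a log2 fold-change scale.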
# [1] = compound: C/C(=N\NC(=O)C1=CC(=CC=C1)S(=O)(=O)N2CCOCC2)/C3=C(C=CC(=C3)Cl)O
# Procedure, shortened: as §1
# [2] = compound: C1=CC(=C(C=C1Cl)C2=NC3=NC=CN=C3C(=N2)NC4=CC=NC=C4)F
# Procedure, shortened: as §1
# [3] = compound: C1=CC(=CC=C1C2=NC3=C(N2)C=C(C=C3)C(=O)N)OC4=CC=C(C=C4)Cl
# Procedure, shortened: as §1
# [4] = compound: C1=CC2=C(C=CC(=C2)/C=C\3/C(=O)NC(=NCC4=CC=CS4)S3)N=C1
# Procedure, shortened: as §1
# [5] = compound: C1=CC2=NC=CN=C2C=C1/C=C/3\C(=O)NC(=O)S3
# Procedure, shortened: as §1
# [6] = compound: C1=CC=C(C=C1)C2=NC(=C(N2)C3=CC=NC=C3)C4=CC(=C(C=C4)Cl)O
# Procedure, shortened: as §1
# [7] = compound: C1=CC=C2C(=C1)C3=NNC4=CC=CC(=C43)C2=O
# Procedure, shortened: as §1
# [8] = compound: C1CCN(C1)C(=O)NC2=CC=CC(=C2)NC3=NC=C(C(=N3)NCCC4=CN=CN4)Br
# Procedure, shortened: as §1
# [9] = compound: C1CN(CCC1(CC2=CC=C(C=C2)Cl)N)C3=NC=NC4=C3C=CN4
# Procedure, shortened: as §1
Target,log2 fold change (erlotinib),log2 fold change [1],log2 fold change [2],log2 fold change [3],log2 fold change [4],log2 fold change [5],log2 fold change [6],log2 fold change [7],log2 fold change [8],log2 fold change [9]
HADHB (UniProt P55084),inactive: -0.057,inactive: 0.112,inactive: 0.035,inactive: -0.184,inactive: 0.063,inactive: 0.024,inactive: 0.04,inactive: 0.259,inactive: -0.206,inactive: 0.158
GSPT2 (UniProt Q8IYD1),inactive: -0.004,inactive: 0.085,inactive: -0.276,inactive: 0.003,inactive: -0.086,inactive: -0.004,inactive: 0.021,inactive: 0.062,,
HEATR5B (UniProt Q9P2D3),inactive: -0.009,inactive: 0.059,inactive: -0.128,inactive: 0.025,inactive: -0.067,inactive: 0.004,inactive: 0.007,inactive: 0.05,inactive: -0.026,inactive: 0.043
HECTD1 (UniProt Q9ULT8),inactive: 0.009,inactive: 0.127,inactive: -0.031,inactive: -0.003,inactive: 0.025,inactive: 0.087,inactive: -0.038,inactive: -0.035,inactive: -0.076,inactive: -0.204
HDDC3 (UniProt Q8N4P3),inactive: 0.031,inactive: -0.084,inactive: 0.033,inactive: -0.034,inactive: 0.104,inactive: 0.043,inactive: -0.014,inactive: 0.014,inactive: 0.007,inactive: 0.013
GTF2H2 (UniProt Q13888),inactive: 0.032,inactive: 0.006,inactive: -0.039,inactive: -0.012,inactive: 0.044,inactive: 0.026,inactive: 0,inactive: -0.025,inactive: -0.055,inactive: 0.001
HDGF (UniProt P51858),inactive: 0.007,inactive: -0.023,inactive: 0.032,inactive: -0.036,inactive: -0.016,inactive: -0.001,inactive: -0.054,inactive: -0.033,inactive: 0.019,inactive: 0.016
HACD3 (UniProt Q9P035),inactive: 0.023,inactive: 0.046,inactive: 0.027,inactive: 0.026,inactive: 0.035,inactive: 0.037,inactive: -0.011,inactive: -0.029,inactive: 0.037,inactive: 0.009
GSTZ1 (UniProt G3V4T6),inactive: 0.01,inactive: 0.028,inactive: 0.07,inactive: 0.09,inactive: 0.029,inactive: -0.033,inactive: 0.003,inactive: 0.023,inactive: -0.002,inactive: 0.057
HADHA (UniProt P40939),inactive: -0.085,inactive: 0.122,inactive: 0.044,inactive: -0.18,inactive: 0.042,inactive: 0.02,inactive: 0.07,inactive: 0.271,inactive: -0.214,inactive: 0.171
GTF3C1 (UniProt Q12789),inactive: 0.336,inactive: -0.423,inactive: -0.018,inactive: -0.018,inactive: 0.17,inactive: -0.007,inactive: -0.436,inactive: 0.007,inactive: -0.138,inactive: 0.035
HEMGN (UniProt Q9BXL5),inactive: -0.043,inactive: -0.004,inactive: -0.035,inactive: 0.013,inactive: 0.05,inactive: 0.008,inactive: -0.026,inactive: -0.001,inactive: -0.003,inactive: -0.009
HDHD5 (UniProt Q9BXW7),inactive: 0.059,inactive: 0.055,inactive: -0.065,inactive: 0.026,inactive: 0.096,inactive: -0.035,inactive: 0.008,inactive: 0.04,inactive: -0.028,inactive: -0.004
HDAC6 (UniProt Q9UBN7),active: 0.43,inactive: 0.033,inactive: -0.007,inactive: -0.007,inactive: 0.041,inactive: -0.164,inactive: 0.033,inactive: 0.07,inactive: -0.043,inactive: 0.115
GTF2H3 (UniProt Q13889),inactive: -0.002,inactive: 0.041,inactive: -0.115,inactive: 0.051,inactive: 0.027,inactive: -0.017,inactive: 0.014,inactive: 0.012,inactive: -0.004,inactive: 0.044
GSPT1 isoform 3 (UniProt P15170),inactive: -0.016,inactive: 0.011,inactive: 0.056,inactive: 0.006,inactive: 0.048,inactive: -0.013,inactive: 0.024,inactive: 0.003,inactive: 0.015,inactive: 0.024
H1-2 (UniProt P16403),inactive: -0.165,inactive: -0.202,inactive: -0.263,inactive: 0.025,inactive: -0.028,inactive: -0.014,inactive: 0,inactive: 0.044,inactive: -0.055,inactive: -0.331
HBG1 (UniProt P69891),inactive: -0.026,inactive: 0.015,inactive: 0.184,inactive: 0.039,inactive: 0.077,inactive: 0.009,inactive: 0.088,inactive: -0.009,inactive: -0.03,inactive: 0.033
HAUS6 (UniProt Q7Z4H7),inactive: 0.029,inactive: -0.097,inactive: -0.307,inactive: -0.117,inactive: 0.2,inactive: 0.054,inactive: -0.07,inactive: -0.055,inactive: 0.168,inactive: -0.091
HEATR5A (UniProt Q86XA9),inactive: 0.13,inactive: -0.01,inactive: -0.026,inactive: -0.055,inactive: 0.03,inactive: 0.002,inactive: -0.008,inactive: -0.06,inactive: 0.319,inactive: -0.01
GSTK1 (UniProt Q9Y2Q3),inactive: -0.041,inactive: 0.01,inactive: 0.128,inactive: 0.025,inactive: 0.061,inactive: 0.021,inactive: 0.037,inactive: 0.065,inactive: -0.023,inactive: 0.034
GSTM2 (UniProt P28161),inactive: 0.061,inactive: 0.019,inactive: 0.02,inactive: -0.045,inactive: 0.036,inactive: 0.067,inactive: -0.054,inactive: -0.004,inactive: 0.008,inactive: 0.034
GSTT1 (UniProt P30711),inactive: 0.037,inactive: -0.007,inactive: 0.275,inactive: 0.033,inactive: 0.114,inactive: 0.037,inactive: -0.044,inactive: -0.031,inactive: 0.003,inactive: -0.028
HDGFL2 (UniProt Q7Z4V5),inactive: 0.002,inactive: 0.001,inactive: 0.042,inactive: -0.006,inactive: -0.046,inactive: 0.048,inactive: -0.01,inactive: -0.046,inactive: 0.033,inactive: 0.057
GSK3B isoform 2 (UniProt P49841),inactive: -0.024,inactive: -0.051,inactive: 0.007,inactive: 0.027,inactive: 0.038,inactive: -0.013,inactive: 0.095,inactive: 0.091,inactive: 0.042,inactive: 0.159
GTSF1 (UniProt Q8WW33),inactive: 0.032,inactive: 0.002,inactive: 0.029,inactive: -0.002,inactive: -0.055,inactive: 0.01,inactive: -0.105,inactive: -0.057,inactive: 0.009,inactive: 0.047
HEXA (UniProt P06865),inactive: 0.012,inactive: -0.012,inactive: 0.013,inactive: 0.007,inactive: 0.024,inactive: 0.004,inactive: -0.003,inactive: -0.023,inactive: 0.01,inactive: 0.007
HERC1 (UniProt Q15751),inactive: -0.018,inactive: 0.025,inactive: -0.005,inactive: 0.04,inactive: -0.024,inactive: 0.006,inactive: 0.026,inactive: 0.026,inactive: -0.024,inactive: -0.042
HAT1 (UniProt O14929),inactive: -0.048,inactive: 0.036,inactive: 0.044,inactive: 0.048,inactive: -0.075,inactive: -0.045,inactive: 0.03,inactive: 0.027,inactive: -0.055,inactive: 0.069
HERC4 (UniProt Q5GLZ8),inactive: 0.018,inactive: 0.053,inactive: 0.06,inactive: -0.012,inactive: 0.019,inactive: 0.025,inactive: 0.007,inactive: 0.012,inactive: 0.016,inactive: 0.049

# Reference: the supplement of paper PMC10849652
